From publication PMC11742405
Results are given in words; binding and its absence hold for the method and conditions named. Binding seen in cells or lysates may run through a third protein. A yes stands for co-enrichment or nearness to the bait. Other partners may have been found.

Biological target: PRR33-Turbo-ID (mouse)
Test: proximity labelling; Turbo-ID-MS: C2C12 about 48 h after Ad-Prr33-TurboID infection, biotin 400 uM for 15 min, streptavidin magnetic beads, SDS-PAGE, mass spectrometry

B1: ZYX (Zyxin) (protein, UniProt Q62523 1-564)
chain: MAAPRPPPAISVSVSAPAFYAPQKKFAPVVAPKPKVNPFRPGDSEPPVAAGAQRAQMGRVGEIPPPPPEDFPLPPPPLIGEGDDSEGALGGAFPPPPPPMIEEPFPPAPLEEDIFPSPPPPLEEEGGPEAPTQLPPQPREKVCSIDLEIDSLSSLLDDMTKNDPFKARVSSGYVPPPVATPFVPKPSTKPAPGGTAPLPPWKTPSSSQPPPQPQAKPQVQLHVQPQAKPHVQPQPVSSANTQPRGPLSQAPTPAPKFAPVAPKFTPVVSKFSPGAPSGPGPQPNQKMVPPDAPSSVSTGSPQPPSFTYAQQKEKPLVQEKQHPQPPPAQNQNQVRSPGGPGPLTLKEVEELEQLTQQLMQDMEHPQRQSVAVNESCGKCNQPLARAQPAVRALGQLFHITCFTCHQCQQQLQGQQFYSLEGAPYCEGCYTDTLEKCNTCGQPITDRMLRATGKAYHPQCFTCVVCACPLEGTSFIVDQANQPHCVPDYHKQYAPRCSVCSEPIMPEPGRDETVRVVALDKNFHMKCYKCEDCGKPLSIEADDNGCFPLDGHVLCRKCHSARAQT
  binding: binds
